Here are results for one substance from article PMC9534967.

Chains of the proteins cited; added tags and fusions are not shown.
UniProt O14727: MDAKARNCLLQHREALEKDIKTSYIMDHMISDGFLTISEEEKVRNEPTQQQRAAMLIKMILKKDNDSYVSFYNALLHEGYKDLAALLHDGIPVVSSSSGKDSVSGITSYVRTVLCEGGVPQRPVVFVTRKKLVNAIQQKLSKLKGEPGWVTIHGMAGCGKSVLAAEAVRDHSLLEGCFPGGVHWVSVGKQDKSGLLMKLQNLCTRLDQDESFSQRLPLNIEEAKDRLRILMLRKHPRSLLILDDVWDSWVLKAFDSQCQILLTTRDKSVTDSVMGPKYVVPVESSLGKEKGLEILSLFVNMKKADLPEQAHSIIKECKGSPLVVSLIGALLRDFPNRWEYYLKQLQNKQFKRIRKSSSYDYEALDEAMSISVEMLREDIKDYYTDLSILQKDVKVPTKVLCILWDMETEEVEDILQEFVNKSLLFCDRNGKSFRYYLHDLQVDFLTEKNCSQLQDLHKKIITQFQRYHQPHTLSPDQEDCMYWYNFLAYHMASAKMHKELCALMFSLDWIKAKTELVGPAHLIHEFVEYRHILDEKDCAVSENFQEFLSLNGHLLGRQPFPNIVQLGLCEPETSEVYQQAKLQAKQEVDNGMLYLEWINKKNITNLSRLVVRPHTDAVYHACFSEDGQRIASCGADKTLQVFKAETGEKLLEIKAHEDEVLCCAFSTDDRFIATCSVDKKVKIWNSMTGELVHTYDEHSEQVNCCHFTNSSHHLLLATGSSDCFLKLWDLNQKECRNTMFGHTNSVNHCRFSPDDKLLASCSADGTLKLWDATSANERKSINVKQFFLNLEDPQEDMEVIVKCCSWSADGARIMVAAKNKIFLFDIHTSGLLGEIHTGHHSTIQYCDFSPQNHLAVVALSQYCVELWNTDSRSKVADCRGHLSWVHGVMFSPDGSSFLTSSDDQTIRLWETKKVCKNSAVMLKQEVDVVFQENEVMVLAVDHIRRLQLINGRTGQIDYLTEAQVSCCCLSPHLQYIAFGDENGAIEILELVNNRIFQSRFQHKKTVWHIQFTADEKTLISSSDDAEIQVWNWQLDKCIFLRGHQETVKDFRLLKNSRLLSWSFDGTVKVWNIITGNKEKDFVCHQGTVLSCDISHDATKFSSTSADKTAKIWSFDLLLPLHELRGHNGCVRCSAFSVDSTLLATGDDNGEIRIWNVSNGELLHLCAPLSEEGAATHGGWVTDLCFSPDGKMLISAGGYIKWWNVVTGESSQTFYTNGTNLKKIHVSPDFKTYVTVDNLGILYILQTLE
UniProt P99999: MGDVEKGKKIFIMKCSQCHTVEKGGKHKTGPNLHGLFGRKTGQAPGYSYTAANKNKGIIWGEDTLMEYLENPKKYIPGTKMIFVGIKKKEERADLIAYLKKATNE

The assay deals with apoptotic protease-activating factor 1 (APAF1) (human (endogenous in BGC823)) (UniProt O14727). Description: co-IP; endogenous proteins in BGC823 cells after DDP at 0 or 1 µg/mL for 24 h; cells with ABL overexpression, or IGF2BP1 or METTL3 deficiency; which protein was precipitated not given.

Results are given in words; binding and its absence hold for the method and conditions named. In cells and extracts the contact can be indirect. Some entries that bind do so weakly or less than the wild type.

For “cytochrome c (Cyt c) (from UniProt P99999 1-105)”, the binding result is “binds”.
